Among all 390,000 compounds or so, about 760 (0.19%) were called active. This list was built around the results that the source calls inconclusive (neither active nor inactive); the mix of calls is not that of the screen. The call rests on the fitted dose curve; in most records, active means well fitted inhibition curve with a large enough effect; inconclusive means small, poorly fitted or top-dose-only effect; inactive means flat fitted curve, though single readings scatter. A potency beside an inconclusive call is a rough fit, not a confirmed value.
Assay: qHTS for Inhibitors of Vif-A3F Interactions: qHTS; further: nearly all actives have a fitted effect of over 65% in size
Settings: HeLa A3F-eYFP + Vif (tagged APOBEC3F with the HIV-1 protein that degrades it), YFP fluorescence increase; series mostly up to 46.1 µM
Excerpt: The recent discovery and characterization of host restriction factors, which provide a potent defense to invading retroviruses, has provided new targets for antiviral drug development. APOBEC3G (A3G) and APOBEC3F (A3F) are potent cytidine deaminases that block HIV-1 replication; HIV-1 expresses the Vif protein, which counteracts A3G and A3F by binding to them and inducing their proteasomal degradation. The Vif-A3G and Vif-A3F interactions provide two potential targets for development of small molecules which can interfere with the ability of Vif to degrade A3G or A3F. […] To identify inhibitors that can interfere with Vif mediated degradation of A3G and A3F, we have developed Hela cell lines that stably express A3G or A3F tagged with eYFP at the C-terminal end (A3G-eYFP or A3F-eYFP, respectively) and Vif. In the absence of an inhibitor, Vif induces degradation of A3G-eYFP and A3F-eYFP, and the cells are not fluorescent. In the presence of an inhibitor, it is expected that Vif will be unable to degrade A3G-eYFP and/or A3F-eYFP, resulting in an increase in yellow fluorescence. In this assays Vif A3F was screened against the Molecular Library Small Molecule Repository (MLSMR). NIH Chemical Genomics Center [NCGC] NIH Molecular Libraries Probe Centers Network [MLPCN] MLPCN Grant: MH093245 Assay Submitter (PI): Vinay Pathak, National Cancer Institute
5 uL of 700 cells/well of A3F-YFP cells are dispensed into black, clear bottom plates. The plates are incubated overnight at 37 deg C. 23 nL of compounds are added by pintool. The plates are incubated overnight at 37 deg C and then read on the TTP Acumen (Ex 488/ Em 500-530).
Potency means the concentration at half of the fitted maximal effect.

Compound | Potency
Cc1cc(C(=O)CCl)c(C)n1-c1cccc([N+](=O)[O-])c1 | inactive
COc1ccc([C@@H]2[C@@H]3C(=O)N(C(C)(C)C)C(=O)[C@@H]3[C@]3(Cc4ccccc4)C(=O)N(c4cccc(Cl)c4)C(=O)N23)cc1 | inactive
COc1ccc(-n2c(=O)c3ccccc3n(CC(=O)NC3CCCC3)c2=O)cc1 | inactive
COC(=O)c1sc(N2C(=O)c3oc4cc(C)c(C)cc4c(=O)c3C2c2ccccc2F)nc1C (centres undefined) | inactive
O=C(/C=C/c1ccc(O)c(O)c1)OCCc1ccccc1 | inconclusive: 6.31 µM [inhibitor, single point]
Cc1cc2ccccn2c1C(=O)c1ccc([N+](=O)[O-])o1 | active: 11.2 µM
COC(=O)c1sccc1NC(=S)Nc1cc(C)cc(C)c1 | active: 25.1 µM
COc1cccc(/C=N/n2c(C3CCCCC3)n[nH]c2=S)c1O | inconclusive: 12.6 µM [inhibitor, partial curve]
Cn1c(SCC(=O)Nc2ccccc2)nc2c([nH]c3ccccc32)c1=O | inconclusive: 7.08 µM [inhibitor, partial curve, poor fit]
CCCCCCc1cc2cc(-c3nnc(-c4ccccc4OC)o3)c(=O)oc2cc1O | inconclusive: 7.08 µM [inhibitor, partial curve, poor fit]
COC(=O)c1cccc(CN2C(=O)SC(Nc3ccccc3C)C2=O)c1 (centres undefined) | inactive
O=C(Nc1cccc(-c2nc3ccccc3o2)c1)c1cccnc1 | inconclusive: 35.5 µM [inhibitor, single point]
C/C(=N\NC(=O)C(C)n1nc(C)c([N+](=O)[O-])c1C)c1ccccc1O (centres undefined) | active: 5.62 µM
CC(=O)NC(c1ccc(C)cc1)c1cc(Cl)c2cccnc2c1O (centres undefined) | inactive
Cc1cc(C(C)(C)C)ccc1OC(=O)C1=CC=CN2CCS(=O)(=O)N=C12 | inconclusive: 5.62 µM [inhibitor, single point]
Cc1ccc(S(=O)(=O)N(CC(O)CN(C)C)c2ccccc2)cc1 (centres undefined) | inactive
COc1cccc(N2CCN(C(=O)C3CCC(=O)N(C4CCCCCC4)C3)CC2)c1 (centres undefined) | inconclusive: 35.5 µM [inhibitor, partial curve, poor fit]
O=[N+]([O-])c1cccnc1Sc1ccc(Cl)cc1 | inconclusive: 0.562 µM [inhibitor, partial curve, poor fit]
CCN(Cc1ccccc1)C(=S)NC(=O)c1ccccc1Br | inconclusive: 3.98 µM [inhibitor, single point]
CC(NCCC(c1ccccc1)c1ccccc1)c1ccccc1 (centres undefined) | inconclusive: 25.1 µM [inhibitor, single point]
O=S(=O)(Nc1ccc(-c2ccccc2)cc1)c1ccccc1 | inconclusive: 1.78 µM [inhibitor, partial curve, poor fit]
CCN1CCN(Cc2ccc(NC(=O)c3cc(NC(=O)c4cc5cccc(OC)c5o4)cc(OC)c3)cc2C(F)(F)F)CC1 | inconclusive: 6.31 µM [inhibitor, single point]
CC(C)(C)C(=O)NC(=S)Nc1ccc(Cc2ccncc2)cc1 | inactive

Compound | Potency
O=C1COc2ccc(C(=O)COC(=O)Cc3c(F)cccc3Cl)cc2N1 | inconclusive: 12.6 µM [inhibitor, single point]
CC(=O)Nc1ccc(S(=O)(=O)Nc2nc3ccccc3nc2Nc2ccc3ccccc3c2)cc1 | inconclusive: 11.2 µM [inhibitor, partial curve]
Cc1ncc([N+](=O)[O-])n1CCOC(=O)C12CC3CC(CC(C3)C1)C2 | inactive
CCOC(=O)CC1(C)OCC(C[N+]2(C)CCCCC2)O1 (centres undefined) | inconclusive: 0.355 µM [inhibitor, partial curve, poor fit]
COc1ccc(-n2cc3c(-c4cccc(Br)c4)nnc(C)c3n2)cc1 | inconclusive: 8.91 µM [inhibitor, partial curve]
COc1ccccc1NC(=O)OC(C)c1ccc(Cl)cc1 (centres undefined) | inconclusive: 7.94 µM [inhibitor, partial curve, poor fit]
CCOc1ccc2nc(N3C(=O)/C(=C/c4ccc(Cl)cc4)NC3=S)sc2c1 | active: 5.01 µM
Cc1ccc2c(C)nc(/N=C(\N)NC(=O)N3c4ccccc4Sc4ccccc43)nc2c1 | inconclusive: 6.31 µM [inhibitor, single point]
O=C(COC(=O)CCC(=O)c1ccc(F)cc1)Nc1nnc(-c2ccccc2)o1 | inconclusive: 14.1 µM [inhibitor, single point]
CC(C)OC(=O)c1c2c(n3ccccc13)C(=O)c1ccccc1C2=O | inconclusive: 2 µM [inhibitor, full curve, poor fit]
O=C(O/N=C(/c1ccccc1)c1ccncc1)c1ccc(F)cc1 | inconclusive: 12.6 µM [inhibitor, partial curve, poor fit]
Cc1nc(NC(=S)NC(=O)c2ccccc2)sc1C | inconclusive: 6.31 µM [inhibitor, single point]
COc1ccccc1N1C(=O)c2cccc3c(Cl)ccc(c23)C1=O | inconclusive: 35.5 µM [inhibitor, single point]
COc1ccc(CC(=O)O/N=C(\N)c2ccccc2)cc1OC | inconclusive: 35.5 µM [inhibitor, single point]
Cc1ccccc1NC(=S)N1CCCN(Cc2ccc(F)cc2)C1 | inactive
CC(C)C1CC(CCNCc2ccc3c(c2)OCO3)(c2ccccc2)CCO1 (centres undefined) | inactive
CCN(C(=O)CSc1nc(-c2ccc(C(C)C)cc2)no1)c1ccccc1 | inactive
O=C(Nc1cc(F)cc(F)c1)c1ccc(NCCc2ccccc2)c([N+](=O)[O-])c1 | inconclusive: 3.55 µM [inhibitor, full curve, poor fit]
NC(=S)N=Nc1c(O)n(Cc2ccccc2)c2ccccc12 | inconclusive: 35.5 µM [inhibitor, single point]
Cc1ccc(N2C(=O)c3cccc4c(N5CCN(C)CC5)ccc(c34)C2=O)c2cccnc12 | inconclusive: 12.6 µM [inhibitor, partial curve, poor fit]
O=C(C1=NN(c2ccccc2)C2C(=O)N(c3ccccc3)C(=O)C12)c1ccccc1 (centres undefined) | inconclusive: 35.5 µM [inhibitor, single point]
Cc1ccc(CCC(=O)Nc2ccc([N+](=O)[O-])cc2)o1 | inactive
CCOC(=O)c1nnn(-c2nonc2N)c1-c1ccc(OCC)cc1 | inactive

Structures above that have bromine (two):
Compound | Potency
CCN(Cc1ccccc1)C(=S)NC(=O)c1ccccc1Br | inconclusive: 3.98 µM [inhibitor, single point]
COc1ccc(-n2cc3c(-c4cccc(Br)c4)nnc(C)c3n2)cc1 | inconclusive: 8.91 µM [inhibitor, partial curve]

Carrying on:

Compound | Potency
CC(=O)c1sc(N/N=C\c2ccc(N(C)C)cc2)nc1C | inconclusive: 20 µM [inhibitor, single point]
COCCN(CCOC)Cc1c(O)ccc2c1O/C(=C\c1ccc(C)o1)C2=O | active: 25.1 µM
O=C(Cc1cccs1)N(Cc1cccs1)C1(C(=O)NC2CCCCC2)CCCCC1 | inactive
Cn1nnc2c[n+](CC(=O)c3ccc(Cl)cc3)cc(Br)c21 | inconclusive: 35.5 µM [inhibitor, single point]
CCN(CC(=O)Nc1ccccc1OC)C(=O)c1ccccc1Sc1ccccc1C#N | inconclusive: 35.5 µM [inhibitor, single point]
Fc1cccc(F)c1/C=N/NC(=S)Nc1cccnc1 | inconclusive: 3.16 µM [inhibitor, full curve, poor fit]
CCN1CCCC1CNCC(O)COc1ccc(C(C)(C)C)cc1C (centres undefined) | inactive
COC(=O)c1ccccc1NC(=O)CSc1nnc(-c2ccoc2C)n1C | inconclusive: 5.62 µM [inhibitor, single point]
CCN(CC)CCC=C(c1cccs1)c1cccs1 | inconclusive: 14.1 µM [inhibitor, partial curve, poor fit]
CCN(CC)CCSc1nc2ccccc2c(=S)n1-c1ccccc1 | inactive
CN(C)c1ccc(/C=C2\SC(=S)N(Nc3ncc(C(F)(F)F)cc3Cl)C2=O)cc1 | active: 10 µM
Cc1ccc(CC(=O)NC2CCSC2=O)cc1 (centres undefined) | inactive
COC(=O)c1ccc(NC(=S)N2CCN(Cc3ccccc3OC)CC2)cc1 | inconclusive: 2.51 µM [inhibitor, partial curve, poor fit]
Cc1ccc(NC2CCCCC2NS(=O)(=O)c2ccccc2)c(C)c1 (centres undefined) | inconclusive: 35.5 µM [inhibitor, single point]
COc1cc2c(cc1OC)C(=S)NC1(CCCC1)C2 | inconclusive: 25.1 µM [inhibitor, single point]
CCC(Sc1nc(C)cc(C)n1)C(=O)NC1=NN=C(c2ccc(C)cc2)CS1 (centres undefined) | inactive
O=C(N/N=C/c1ccncc1)c1ccc(NC(=O)c2ccc(Cl)cc2)cc1 | inconclusive: 35.5 µM [inhibitor, single point]
COc1ccc(C(=O)Nc2ccc3c(c2)nc(CCNC(=O)c2ccco2)n3C)cc1 | inconclusive: 22.4 µM [inhibitor, partial curve, poor fit]
N#CCCn1c(SCC(=O)Nc2ccc(N3CCOCC3)cc2)nc2ccccc21 | inconclusive: 5.62 µM [inhibitor, single point]
O/N=C(/c1ccc(Cl)cc1)C1CC1c1ccccc1 (centres undefined) | inconclusive: 35.5 µM [inhibitor, single point]
N#CCSc1nc2cc(C(=O)N3CCC(C(N)=O)CC3)ccc2c2nc3ccccc3n12 | inconclusive: 6.31 µM [inhibitor, single point]
Cc1ccc(C)c(-n2c3nc(=O)[nH]c(=O)c-3cc3cc([N+](=O)[O-])ccc32)c1 | inconclusive: 8.91 µM [inhibitor, partial curve, poor fit]
O=C1[C@@H](c2ccccc2)[C@@H](c2ccccc2)N1c1cccnc1 | inconclusive: 25.1 µM [inhibitor, single point]

Reference: PubChem BioAssay AID602313 (National Center for Advancing Translational Sciences (NCATS), 2012)
